Source: PubChem BioAssay AID1508588 (Peter MacCallum Cancer Centre, 2020)
Here is an unselected part of about 18,000 deposited reagents. In the full data, 790 (4.4%) are marked active. 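Calls rest on a combination of fold-change classes in drug and vehicle arms, not all shown here.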 No sequences are given here.

Assay: 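Genome-wide search for knock-downs that heighten vemurafenib action in melanoma cells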 (primary screen)
Cells: human WM266.4 melanoma cells (BRAF V600 mutant)
Reagent: siRNA pool against human genes, 40 nM
Duration: 96 h from transfection to read-out
Treatment: vemurafenib 300 nM (about IC25), added 48 h after transfection, for 48 h; comparison arm got DMSO vehicle only
Measured: 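Cell gain (DAPI nuclei at end minus before drug, mean of two replicates) and medium lactate by absorbance per cell, both as ratio to non-targeting siRNA, also grouped into fold-change classes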
Direction: cell gain with vemurafenib: higher = more cell gain than with non-targeting siRNA; lactate per cell with vemurafenib: higher = more lactate made per cell
Call rule: 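Enhancement is called by pairing each knock-down's vehicle-arm and drug-arm fold-change classes for viability or glycolysis; which class combinations qualify is not given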
Calls: active = enhances vemurafenib effect; inactive = no enhancement seen

The first 2 records as a preview:
Gene,cell gain with vemurafenib,lactate per cell with vemurafenib,Outcome
"B3GALT6 (beta-1,3-galactosyltransferase 6)",0.99,0.68,inactive
LARGE2 (LARGE xylosyl- and glucuronyltransferase 2),1.05,0.53,inactive

Results, repeating the preview:
Gene,cell gain with vemurafenib,lactate per cell with vemurafenib,Outcome
"B3GALT6 (beta-1,3-galactosyltransferase 6)",0.99,0.68,inactive
LARGE2 (LARGE xylosyl- and glucuronyltransferase 2),1.05,0.53,inactive
BACE1 (beta-secretase 1),-0.09,1.1,inactive
DNAAF11 (dynein axonemal assembly factor 11),1.35,0.54,inactive
GRIN3B (glutamate ionotropic receptor NMDA type subunit 3B),1.61,0.4,inactive
CAP1 (cyclase associated actin cytoskeleton regulatory protein 1),1.22,1.13,inactive
JKAMP (JNK1/MAPK8 associated membrane protein),0.48,0.8,inactive
OR13C2 (olfactory receptor family 13 subfamily C member 2),0.51,1.52,inactive
EPN2 (epsin 2),1.03,0.97,inactive
SLIRP-OT1 (SLIRP overlapping transcript 1),0.47,1.19,inactive
FGA (fibrinogen alpha chain),0.83,0.78,inactive
PLXNA3 (plexin A3),0.77,0.71,inactive
"HLA-DQA1 (major histocompatibility complex, class II, DQ alpha 1)",0.56,0.62,inactive
PROM1 (prominin 1),0.35,1.17,inactive
DAZAP2 (DAZ associated protein 2),0.62,0.86,inactive
PXDN (peroxidasin),0.63,0.3,inactive
MX1 (MX dynamin like GTPase 1),0.36,1.13,inactive
WEE1 (WEE1 G2 checkpoint kinase),0.36,1.36,inactive
TCEANC2,0.49,0.99,inactive
EXOC5 (exocyst complex component 5),0.62,1.02,inactive
POC1B (POC1 centriolar protein B),0.33,1.25,inactive
PPP2CB (protein phosphatase 2 catalytic subunit beta),0.8,0.55,inactive
MLXIP (MLX interacting protein),1.25,0.86,inactive
PRSS16 (serine protease 16),1.15,0.4,active
BRMS1 (BRMS1 transcriptional repressor and anoikis regulator),0.56,0.86,inactive
UNC119 (unc-119 lipid binding chaperone),0.78,1.08,inactive
ERGIC1 (endoplasmic reticulum-golgi intermediate compartment 1),0.52,1.22,inactive
BOD1 (biorientation of chromosomes in cell division 1),0.37,0.9,inactive
DAP (death associated protein),0.29,0.66,inactive
S100A3 (S100 calcium binding protein A3),0.29,2.87,inactive
"RBBP8 (RB binding protein 8, endonuclease)",0.16,1.54,inactive
XPO6 (exportin 6),1.11,0.58,inactive
CCDC88B (coiled-coil and HOOK domain protein 88B),0.46,1.02,inactive
"H1-3 (H1.3 linker histone, cluster member)",1.21,0.44,inactive
ARSK (arylsulfatase family member K),1.01,0.7,inactive
ANKLE1 (ankyrin repeat and LEM domain containing 1),0.31,0.6,inactive
STAT5B (signal transducer and activator of transcription 5B),0.39,0.14,active
CENPO (centromere protein O),0.93,1.31,inactive
SSTR2 (somatostatin receptor 2),0.72,0.68,inactive
COL6A3 (collagen type VI alpha 3 chain),0.07,2.31,inactive
SYTL3 (synaptotagmin like 3),0.81,1.04,inactive
FOCAD (focadhesin),0.59,1.03,inactive
ZBTB1 (zinc finger and BTB domain containing 1),0.49,0.62,inactive
OR4N2 (olfactory receptor family 4 subfamily N member 2),0.12,2.02,inactive
DENND11 (DENN domain containing 11),0.43,1.1,inactive
IFT43 (intraflagellar transport 43),0.61,1.02,inactive
TIFA (TRAF interacting protein with forkhead associated domain),0.22,0.73,inactive
ME1 (malic enzyme 1),1.1,0.71,inactive
PNISR (PNN interacting serine and arginine rich protein),0.6,2.05,inactive
"ALPP (alkaline phosphatase, placental)",0.17,2.32,inactive
GATA2 (GATA binding protein 2),0.29,0.82,inactive
OR1K1 (olfactory receptor family 1 subfamily K member 1),0.08,1.4,inactive
FGG (fibrinogen gamma chain),0.47,1.12,inactive
RBM41 (RNA binding motif protein 41),0.66,1.17,inactive
VMP1 (vacuole membrane protein 1),0.84,0.48,active
HMGN5 (high mobility group nucleosome binding domain 5),0.65,1.05,inactive
"LSM11 (LSM11, U7 small nuclear RNA associated)",1.08,0.57,inactive
LRRC43 (leucine rich repeat containing 43),0.57,0.62,inactive
PACRG (parkin coregulated),0.58,0.99,inactive
TMPRSS2 (transmembrane serine protease 2),0.39,1.19,inactive
FCN1 (ficolin 1),0.21,1.73,inactive
MIER3 (MIER family member 3),0.16,0.38,active
EPHA10 (EPH receptor A10),0.19,-0.02,active
PRR20A (proline rich 20A),1.02,0.74,inactive
MSLN (mesothelin),0.24,2.23,inactive
SLA (Src like adaptor),0.45,1.07,inactive
CARINH,0.26,4.76,inactive
PIK3R5 (phosphoinositide-3-kinase regulatory subunit 5),0.24,1.48,inactive
ZNF76 (zinc finger protein 76),-0.19,2.93,inactive
DCAF5 (DDB1 and CUL4 associated factor 5),0.91,0.81,inactive
SRPRB (SRP receptor subunit beta),0.54,0.54,inactive
FAM117B (family with sequence similarity 117 member B),0.5,1.04,inactive
TMEM116 (transmembrane protein 116),0.28,1.67,inactive
FUOM (fucose mutarotase),1.14,0.7,inactive
SHD (Src homology 2 domain containing transforming protein D),0.02,1.82,inactive
SYT3 (synaptotagmin 3),1.17,0.76,inactive
NIP7 (nucleolar pre-rRNA processing protein NIP7),0.32,1.11,inactive
ARL8B (ARF like GTPase 8B),0.54,1.29,inactive
PYROXD1 (pyridine nucleotide-disulphide oxidoreductase domain 1),0.86,0.66,inactive
EEF1G (eukaryotic translation elongation factor 1 gamma),0.39,1.24,inactive
PCDH20 (protocadherin 20),0.86,0.59,inactive
AGAP7P,0.26,0.97,inactive
TTC9B (tetratricopeptide repeat domain 9B),0.31,1.8,inactive
AKNA (AT-hook transcription factor),0.6,1.6,inactive
SYTL4 (synaptotagmin like 4),1.12,0.8,inactive
SLC27A1,0.68,1.29,inactive
ZMAT4 (zinc finger matrin-type 4),1.07,0.82,inactive
MOB1A (MOB kinase activator 1A),0.21,0.78,inactive
RNF169 (ring finger protein 169),0.64,1.35,inactive
FGF13 (fibroblast growth factor 13),0.98,1.2,inactive
GNB1L (G protein subunit beta 1 like),0.36,1.56,inactive
TCAP (titin-cap),0.43,2.33,inactive
CHRFAM7A (CHRNA7 (exons 5-10) and FAM7A (exons A-E) fusion),0.93,0.58,inactive
OR6C1 (olfactory receptor family 6 subfamily C member 1),0.29,1.29,inactive
CHRAC1 (chromatin accessibility complex subunit 1),0.56,0.5,inactive
DNAJC10 (DnaJ heat shock protein family (Hsp40) member C10),-0.1,1.06,inactive
PRTN3 (proteinase 3),0.3,2.02,inactive
OR14A16 (olfactory receptor family 14 subfamily A member 16),0.92,0.48,inactive
GPR173 (G protein-coupled receptor 173),0.81,0.21,inactive
MARCHF9 (membrane associated ring-CH-type finger 9),0.53,1.62,inactive
BEND7 (BEN domain containing 7),0.9,0.4,inactive
PDIA4 (protein disulfide isomerase family A member 4),0.51,1.57,inactive
"CCSAP (centriole, cilia and spindle associated protein)",0.28,1.04,inactive
RAB3GAP1 (RAB3 GTPase activating protein catalytic subunit 1),0.86,0.57,inactive
NDRG2 (NDRG family member 2),0.68,0.56,inactive
TMEM182 (transmembrane protein 182),0.88,0.96,inactive
DDX42 (DEAD-box helicase 42),0.05,1.39,inactive
